{"source": "PubChem BioAssay AID328", "about": "(DTP/NCI, 2004)", "system": "BDF1 mice, P388 leukemia ip, median survival T/C", "test": "NCI In Vivo Anticancer Drug Screen. Data for tumor model P388 Leukemia (intraperitoneal) in B6D2F1 (BDF1) mice", "conditions": "T/C endpoint: median survival time, higher T/C = longer survival", "outline": "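Mice carrying the transplantable tumour receive compound or vehicle. Survival is followed in each arm, and the treated measure is divided by the vehicle measure.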", "note": "The list shows only some results of the screen, not a fair sample: it gathers tests that were run many times, whatever their T/C, doses with no T/C, and many T/C values between a quarter and a half above the control. Other doses and runs of a compound stand elsewhere. T/C gives the treated animals as a percentage of the vehicle group. Some doses have a count of surviving animals in place of a T/C: the source holds a T/C of zero for them, seemingly a mark for toxic or unscored doses. Some survivor counts are full or nearly so, which does not show that the dose was tolerated: the source hardly ever lists a survival T/C far under the control, and the zero likely stands for such cases as well. Counts of survivors are from the toxicity check (mostly the fifth day) where no day follows; animals may have died later. Schedule codes are those of the source, taken here to give the interval after Q, in days (D) or hours (H), and the number of doses after X. For survival time, the PubChem record calls one and a half times the control and up active, and a quarter to a half above the control has no call in these data; cut-offs in other NCI protocols can differ. Some T/C values carry the count of animals alive at the toxicity check (mostly the fifth day); where none is given, no animal had died by that day.", "data": [{"smiles": "CN=C(N)c1ccc(NC(=O)c2ccc(C(=O)Nc3ccc(C(N)=NC)cc3)cc2)cc1", "values": [{"measurement": "T/C", "setting": "dose: 120.0 mg/kg/injection, schedule: Q01DX010 (ip), vehicle: saline", "result": "140 % of control"}]}, {"smiles": "NC(CCCC(=O)O)P(=O)(O)O", "note": "(stereo not drawn)", "values": [{"measurement": "survivor count", "setting": "dose: 400.0 mg/kg/injection, schedule: Q01DX009 (ip), vehicle: Klucel (hydroxypropylcellulose) (HPC)", "result": "4 of 6"}]}, {"smiles": "CO[C@H]1Nc2c(ccc(C)c2O)C(=O)N2C=C(/C=C/C(N)=O)C[C@@H]12", "values": [{"measurement": "T/C", "setting": "dose: 0.03 mg/kg/injection, schedule: Q01DX009 (ip), vehicle: saline with Tween-80", "result": "131 % of control [5 of 6 alive]"}, {"measurement": "T/C", "setting": "dose: 0.06 mg/kg/injection, schedule: Q01DX009 (ip), vehicle: saline with Tween-80", "result": "131 % of control"}, {"measurement": "survivor count", "setting": "dose: 0.12 mg/kg/injection, schedule: Q01DX009 (ip), vehicle: Klucel (hydroxypropylcellulose) (HPC)", "result": "2 of 6"}, {"measurement": "T/C", "setting": "dose: 0.12 mg/kg/injection, schedule: Q01DX009 (ip), vehicle: saline", "result": "141 % of control [5 of 6 alive]"}, {"measurement": "T/C", "setting": "dose: 0.18 mg/kg/injection, schedule: Q01DX009 (ip), vehicle: saline", "result": "145 % of control"}, {"measurement": "survivor count", "setting": "dose: 0.5 mg/kg/injection, schedule: Q01DX010 (ip), vehicle: saline", "result": "6 of 6"}, {"measurement": "survivor count", "setting": "dose: 1.0 mg/kg/injection, schedule: Q01DX010 (ip), vehicle: saline", "result": "6 of 6"}, {"measurement": "survivor count", "setting": "dose: 2.0 mg/kg/injection, schedule: Q01DX010 (ip), vehicle: saline", "result": "6 of 6"}, {"measurement": "survivor count", "setting": "dose: 700.0 micrograms/kg/injection, schedule: Q04DX003 (ip), vehicle: saline + alcohol", "result": "6 of 8"}, {"measurement": "survivor count", "setting": "dose: 1000.0 micrograms/kg/injection, schedule: Q04DX003 (ip), vehicle: saline + alcohol", "result": "2 of 8"}]}, {"smiles": "COCCNCCN1CCN(CCCN2c3ccccc3Sc3ccc(C(F)(F)F)cc32)CC1", "values": [{"measurement": "survivor count", "setting": "dose: 80.0 mg/kg/injection, schedule: Q04DX003 (ip), vehicle: saline", "result": "4 of 6"}]}, {"smiles": "CC(=O)OCC(=O)[C@@]1(O)CC[C@H]2[C@@H]3C[C@H](F)C4=CC(=O)CC[C@]4(C)[C@H]3C(=O)C[C@@]21C", "values": [{"measurement": "survivor count", "setting": "dose: 200.0 mg/kg/injection, schedule: Q01DX009 (ip), vehicle: other", "result": "6 of 6"}, {"measurement": "survivor count", "setting": "dose: 400.0 mg/kg/injection, schedule: Q01DX009 (ip), vehicle: other", "result": "6 of 6"}]}, {"smiles": "O=c1[nH]nnc2ccccc12", "values": [{"measurement": "survivor count", "setting": "dose: 200.0 mg/kg/injection, schedule: Q04DX003 (ip), vehicle: Klucel (hydroxypropylcellulose) (HPC)", "result": "1 of 6"}, {"measurement": "survivor count", "setting": "dose: 225.0 mg/kg/injection, schedule: Q01DX009 (ip), vehicle: Klucel (hydroxypropylcellulose) (HPC)", "result": "6 of 6"}, {"measurement": "survivor count", "setting": "dose: 400.0 mg/kg/injection, schedule: Q04DX003 (ip), vehicle: Klucel (hydroxypropylcellulose) (HPC)", "result": "0 of 6"}]}]}
